# Source: the supplement of paper PMC8728848
# The other results are listed elsewhere or left out.
# B1: Protein L(B1-B4) (Finegoldia magna), Q51912 (protein)
# chain: KEETPETPETDSEEEVTIKANLIFANGSTQTAEFKGTFEKATSEAYAYADTLKKDNGEYTVDVADKGYTLNIKFAGKEKTPEEPKEEVTIKANLIYADGKTQTAEFKGTFEEATAEAYRYADALKKDNGEYTVDVADKGYTLNIKFAGKEKTPEEPKEEVTIKANLIYADGKTQTAEFKGTFEEATAEAYRYADLLAKENGKYTVDVADKGYTLNIKFAGKEKTPEEPKEEVTIKANLIYADGKTQTAEFKGTFAEATAEAYRYADLLAKENGKYTADLEDGGYTINIRFAG
# Legend:
# Assay in all cases: glycan array binding signal (z-score within array); higher = stronger binding
# Conditions in all cases: glycan notation: IUPAC condensed, linker removed
# [1] = biological target: Kdn(a2-3)Gal(b1-4)Glc
# Procedure, shortened: (§1)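 Arrays were curated from the Consortium for Functional Glycomics database, 3228 in total, and kept only where the protein sequence was available. Binding is expressed as a within-array Z-score. This score was averaged across arrays of the same protein sequence at different concentrations or buffers and across linkers, and negative values can be read as non-binding.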
# [2] = biological target: Kdn(a2-3)Gal(b1-4)GlcNAc
# Procedure, shortened: as §1
# [3] = biological target: Kdn(a2-3)Gal(b1-4)[Fuc(a1-3)]GlcNAc
# Procedure, shortened: as §1
# [4] = biological target: Kdn(a2-6)Gal(b1-4)GlcNAc
# Procedure, shortened: as §1
# [5] = biological target: Man(a1-2)Man(a1-2)Man(a1-3)Man
# Procedure, shortened: as §1
# [6] = biological target: Man(a1-2)Man(a1-2)Man(a1-6)[Man(a1-3)]Man
# Procedure, shortened: as §1
# [7] = biological target: Man(a1-2)Man(a1-3)Man
# Procedure, shortened: as §1
# [8] = biological target: Man(a1-2)Man(a1-3)[Man(a1-2)Man(a1-6)]Man
# Procedure, shortened: as §1
# [9] = biological target: Man(a1-2)Man(a1-3)[Man(a1-2)Man(a1-6)]Man(a1-6)[Man(a1-2)Man(a1-2)Man(a1-3)]Man
# Procedure, shortened: as §1
# [10] = biological target: Man(a1-2)Man(a1-3)[Man(a1-2)Man(a1-6)]Man(a1-6)[Man(a1-2)Man(a1-2)Man(a1-3)]Man(b1-4)GlcNAc(b1-4)GlcNAc
# Procedure, shortened: as §1
# [11] = biological target: Man(a1-2)Man(a1-3)[Man(a1-6)]Man(a1-6)[Man(a1-2)Man(a1-3)]Man(b1-4)GlcNAc(b1-4)GlcNAc
# Procedure, shortened: as §1
# [12] = biological target: Man(a1-2)Man(a1-6)[Man(a1-3)]Man(a1-6)[Man(a1-2)Man(a1-2)Man(a1-3)]Man
# Procedure, shortened: as §1
# [13] = biological target: Man(a1-2)Man(a1-6)[Man(a1-3)]Man(a1-6)[Man(a1-2)Man(a1-2)Man(a1-3)]Man(b1-4)GlcNAc(b1-4)GlcNAc
# Procedure, shortened: as §1
# [14] = biological target: Man(a1-3)[Man(a1-6)]Man
# Procedure, shortened: as §1
# [15] = biological target: Man(a1-3)[Man(a1-6)]Man(a1-6)[Man(a1-2)Man(a1-3)]Man(b1-4)GlcNAc(b1-4)GlcNAc
# Procedure, shortened: as §1
# [16] = biological target: Man(a1-3)[Man(a1-6)]Man(a1-6)[Man(a1-3)]Man
# Procedure, shortened: as §1
# [17] = biological target: Man(a1-3)[Man(a1-6)]Man(a1-6)[Man(a1-3)]Man(b1-4)GlcNAc(b1-4)GlcNAc
# Procedure, shortened: as §1
# [18] = biological target: Man(a1-3)[Man(a1-6)]Man(b1-4)GlcNAc(b1-4)GlcNAc
# Procedure, shortened: as §1
# [19] = biological target: Man(a1-3)[Man(a1-6)]Man(b1-4)GlcNAc(b1-4)[Fuc(a1-6)]GlcNAc
# Procedure, shortened: as §1
# [20] = biological target: Man(a1-6)Man
# Procedure, shortened: as §1
# [21] = biological target: Man(b1-4)GlcNAc
# Procedure, shortened: as §1
# [22] = biological target: MurNAc(b1-4)GlcNAc
# Procedure, shortened: as §1
# [23] = biological target: Neu5Ac(a2-3)Gal
# Procedure, shortened: as §1
# [24] = biological target: Neu5Ac(a2-3)Gal(b1-3)GalNAc
# Procedure, shortened: as §1
# [25] = biological target: Neu5Ac(a2-3)Gal(b1-3)GalNAc(b1-3)Gal(a1-4)Gal(b1-4)Glc
# Procedure, shortened: as §1
# [26] = biological target: Neu5Ac(a2-3)Gal(b1-3)GalNAc(b1-4)[Neu5Ac(a2-3)]Gal(b1-4)Glc
# Procedure, shortened: as §1
# [27] = biological target: Neu5Ac(a2-3)Gal(b1-3)GalNAc(b1-4)[Neu5Ac(a2-8)Neu5Ac(a2-3)]Gal(b1-4)Glc
# Procedure, shortened: as §1
# [28] = biological target: Neu5Ac(a2-3)Gal(b1-3)GalNAc6S
# Procedure, shortened: as §1
# [29] = biological target: Neu5Ac(a2-3)Gal(b1-3)GlcNAc
# Procedure, shortened: as §1
# [30] = biological target: Neu5Ac(a2-3)Gal(b1-3)GlcNAc(b1-2)Man
# Procedure, shortened: as §1
# [31] = biological target: Neu5Ac(a2-3)Gal(b1-3)GlcNAc(b1-2)Man(a1-3)[GlcNAc(b1-4)][Neu5Ac(a2-3)Gal(b1-3)GlcNAc(b1-2)Man(a1-6)]Man(b1-4)GlcNAc(b1-4)GlcNAc
# Procedure, shortened: as §1
# [32] = biological target: Neu5Ac(a2-3)Gal(b1-3)GlcNAc(b1-2)Man(a1-3)[Neu5Ac(a2-3)Gal(b1-3)GlcNAc(b1-2)Man(a1-6)]Man(b1-4)GlcNAc(b1-4)GlcNAc
# Procedure, shortened: as §1
# [33] = biological target: Neu5Ac(a2-3)Gal(b1-3)GlcNAc(b1-3)Gal(b1-3)GlcNAc
# Procedure, shortened: as §1
# [34] = biological target: Neu5Ac(a2-3)Gal(b1-3)GlcNAc(b1-3)Gal(b1-4)GlcNAc
# Procedure, shortened: as §1
# [35] = biological target: Neu5Ac(a2-3)Gal(b1-3)GlcNAc(b1-3)GalNAc
# Procedure, shortened: as §1
# [36] = biological target: Neu5Ac(a2-3)Gal(b1-3)GlcNAc(b1-4)Gal(b1-4)Glc
# Procedure, shortened: as §1
# [37] = biological target: Neu5Ac(a2-3)Gal(b1-3)GlcNAc(b1-6)GalNAc
# Procedure, shortened: as §1
# [38] = biological target: Neu5Ac(a2-3)Gal(b1-3)GlcNAc6S
# Procedure, shortened: as §1
binder,measurement,setting,value
B1,glycan array binding signal (z-score),[1],-0.246
same,glycan array binding signal (z-score),[2],0.668
same,glycan array binding signal (z-score),[3],2.26
same,glycan array binding signal (z-score),[4],-0.664
same,glycan array binding signal (z-score),[5],-0.464
same,glycan array binding signal (z-score),[6],0.146
same,glycan array binding signal (z-score),[7],0.213
same,glycan array binding signal (z-score),[8],-0.872
same,glycan array binding signal (z-score),[9],-0.82
same,glycan array binding signal (z-score),[10],0.717
same,glycan array binding signal (z-score),[11],-0.027
same,glycan array binding signal (z-score),[12],-0.6
same,glycan array binding signal (z-score),[13],-0.64
same,glycan array binding signal (z-score),[14],-0.479
same,glycan array binding signal (z-score),[15],2.94
same,glycan array binding signal (z-score),[16],-0.4
same,glycan array binding signal (z-score),[17],0.111
same,glycan array binding signal (z-score),[18],0.117
same,glycan array binding signal (z-score),[19],-0.445
same,glycan array binding signal (z-score),[20],-0.159
same,glycan array binding signal (z-score),[21],-0.62
same,glycan array binding signal (z-score),[22],-1.04
same,glycan array binding signal (z-score),[23],-0.766
same,glycan array binding signal (z-score),[24],-0.542
same,glycan array binding signal (z-score),[25],0.345
same,glycan array binding signal (z-score),[26],-0.583
same,glycan array binding signal (z-score),[27],0.74
same,glycan array binding signal (z-score),[28],-0.621
same,glycan array binding signal (z-score),[29],-0.387
same,glycan array binding signal (z-score),[30],1.77
same,glycan array binding signal (z-score),[31],0.659
same,glycan array binding signal (z-score),[32],-0.453
same,glycan array binding signal (z-score),[33],-0.63
same,glycan array binding signal (z-score),[34],-0.363
same,glycan array binding signal (z-score),[35],-0.496
same,glycan array binding signal (z-score),[36],-0.762
same,glycan array binding signal (z-score),[37],0.922
same,glycan array binding signal (z-score),[38],0.538

# Exported tab-delimited: entries from further up.
binder	measurement	setting	value
B1	glycan array binding signal (z-score)	[23]	-0.766
same	glycan array binding signal (z-score)	[36]	-0.762
